{
  "source": "PubChem BioAssay AID1347076",
  "about": "(National Center for Advancing Translational Sciences (NCATS), 2019)",
  "note": "About 13,000 (3.2%) of roughly 400,000 compounds were called active. The shares of active, inactive and inconclusive entries below differ from those in the screen. The call rests on the fitted dose curve; in most records, active means well fitted cell-killing curve with a large enough effect; inconclusive means small, poorly fitted or top-dose-only effect, or effect the other way; inactive means flat fitted curve, though single readings scatter. Potencies of inconclusive entries are doubtful fits and often do not repeat. On the % scale 0 is the no-effect control and ±100 the full control effect; potency means the concentration at half of the fitted maximal effect.",
  "data": [
    {"assay": "qHTS assay for MDR1-selective chemotherapeutics: Primary screen using the drug-selected MDR subline cells KB-V1; further: nearly all actives have a fitted effect of over 60% in size", "conditions": "KB-V1 MDR cells viability, CellTiter-Glo, 72 h; activity change, negative = cytotoxicity: at 46.1 µM (top of the series)", "method_in_brief": "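Readout: CellTiter-Glo luminescence, 10 min after addition. Cells: KB-V1 MDR subline, 72 h at 37 degrees C with compound. Analysis: corrected, normalized data fitted to concentration-effect curves.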", "values": [
      {"compound": "OC[C@@H]1CN(Cc2cccnc2)C[C@H](n2cnc3c(NC4CCCC4)ncnc32)O1", "activity change, negative = cytotoxicity": "inactive: 6.33%"},
      {"compound": "C1CC(=NN=C2CCSCC2)CCS1", "activity change, negative = cytotoxicity": "inactive: 10.8%"},
      {"compound": "CCCCn1cnc2c1c(=O)n(CC(=O)c1cc(C)n(C)c1C)c(=O)n2CC(C)C", "Potency": "inconclusive: 18.4 µM [rising, single point]"},
      {"compound": "Cc1cc2c(cc1C)N(C(=O)CCl)CC(=O)N2", "Potency": "inconclusive: 20.6 µM [cytotoxic, single point]"},
      {"compound": "O=C(NCc1ccccc1)C(c1c(F)cccc1Cl)N(C(=O)c1csnn1)C1CC1", "note": "(configuration not stated)", "activity change, negative = cytotoxicity": "inactive: -3.66%"},
      {"compound": "CCCCC(=O)Nc1nc2c(s1)COc1ccccc1-2", "activity change, negative = cytotoxicity": "inactive: -2.42%"},
      {"compound": "O=C(/C=C/c1c(F)cccc1Cl)Nc1ccc(S(=O)(=O)Nc2ncccn2)cc1", "activity change, negative = cytotoxicity": "inactive: 0.688%"},
      {"compound": "CC(C)Nc1nc(SC(C)C(=O)Nc2ccccc2)nc(N(C)C)n1", "note": "(configuration not stated)", "Potency": "inconclusive: 7.31 µM [cytotoxic, partial curve]"},
      {"compound": "CCCCn1c(N)c(N(CCOC)C(=O)c2cc3c(s2)CCCCC3)c(=O)[nH]c1=O", "Potency": "inconclusive: 25.9 µM [rising, single point]"},
      {"compound": "O=C(COc1ccc(C(=O)c2ccccc2)cc1)NC1CCCCCC1", "Potency": "active: 10.3 µM"},
      {"compound": "c1ccc2c(-c3cncc4ccccc34)cncc2c1", "Potency": "inconclusive: 29.1 µM [cytotoxic, single point]"},
      {"compound": "Cc1cc(-c2ccccc2)oc(=O)c1NC(=O)c1ccccc1", "Potency": "inconclusive: 18.4 µM [cytotoxic, partial curve]"},
      {"compound": "CCN(CC)CCCNC(=O)C(C)n1nc(C)c2sc3ccccc3c2c1=O", "note": "(configuration not stated)", "activity change, negative = cytotoxicity": "inactive: 6.74%"},
      {"compound": "Cc1ccc2nc(C3CCCN3Cc3nc(CCC(C)C)no3)[nH]c2c1", "note": "(configuration not stated)", "Potency": "active: 6.51 µM"},
      {"compound": "COc1cc(OC)c(NC(=S)NCc2ccc(F)cc2)cc1Cl", "activity change, negative = cytotoxicity": "inactive: -18.7%"},
      {"compound": "C=CCSc1nc2c(c(=O)[nH]c(=O)n2C)n1CC", "Potency": "inconclusive: 14.6 µM [cytotoxic, partial curve]"},
      {"compound": "c1ccc(CNCc2ccc(CNCc3ccccc3)cc2)cc1", "activity change, negative = cytotoxicity": "inactive: -14.3%"},
      {"compound": "COc1ccc(OC)c(-c2c3c([nH]c(=S)c2C#N)CCCC3)c1", "Potency": "inconclusive: 18.4 µM [cytotoxic, single point]"},
      {"compound": "CCN(CC)c1ccc2cc(C(=O)NNC(=O)c3ccc(S(=O)(=O)N4CCCCC4)cc3)c(=O)oc2c1", "Potency": "active: 2.59 µM"},
      {"compound": "CCOC(=O)c1c(C)[nH]c(C)c1S(=O)(=O)N1CCCC(C(=O)N2CCN(c3cc(C)ccc3C)CC2)C1", "note": "(configuration not stated)", "activity change, negative = cytotoxicity": "inactive: 2.68%"},
      {"compound": "CCOc1ccc(N=Nc2ccc(O)c3ncccc23)cc1", "activity change, negative = cytotoxicity": "inactive: -18.5%"},
      {"compound": "O=C(O)c1ccc(NCCC2=CCCCC2)c([N+](=O)[O-])c1", "activity change, negative = cytotoxicity": "inactive: 25%"},
      {"compound": "CC1(C2CC(C(F)(F)F)n3nc(C(=O)O)cc3N2)CC1", "note": "(configuration not stated)", "activity change, negative = cytotoxicity": "inactive: -11.9%"},
      {"compound": "COCCCNC(=O)c1cc2c(=O)n(C)c3ccccc3c2n1C", "Potency": "active: 16.4 µM"},
      {"compound": "Cn1c2ccccc2c2ncn(CCC3=CCCCC3)c(=O)c21", "Potency": "active: 16.4 µM"},
      {"compound": "CCCCN(CC)C(=O)c1cc2c(=O)[nH]c3ccc(C)cc3c2s1", "activity change, negative = cytotoxicity": "inconclusive: -32.7%"},
      {"compound": "O=C(CN1CCCCC1)N1CCCc2ccccc21", "activity change, negative = cytotoxicity": "inactive: 1.93%"},
      {"compound": "CC(C)CC(NC(=O)OCc1ccccc1)C(=O)NC(Cc1c[nH]c2ccccc12)C(=O)O", "note": "(configuration not stated)", "activity change, negative = cytotoxicity": "inactive: 6.38%"},
      {"compound": "CCc1ccc(NC(=O)c2ccc(F)c(S(=O)(=O)NCC3COc4ccccc4O3)c2)cc1", "note": "(configuration not stated)", "Potency": "active: 3.26 µM"},
      {"compound": "O=C(COC(=O)c1ccc(F)cc1Cl)NC(=O)NC1CCCC1", "Potency": "inconclusive: 16.4 µM [rising, single point]"},
      {"compound": "CCCCn1c(N)c(N(C)C(=O)c2cccc(-n3cnnn3)c2)c(=O)[nH]c1=O", "activity change, negative = cytotoxicity": "inactive: 0%"},
      {"compound": "Cn1c(Cc2ccccc2)nnc1SCC(=O)c1ccc(Br)s1", "Potency": "active: 13 µM"},
      {"compound": "C/C=C1\\COC(C(=O)NCc2ccncc2)(C(F)(F)F)C=C1C=C1CCCCC1", "note": "(configuration not stated)", "Potency": "inconclusive: 16.4 µM [cytotoxic, partial curve]"},
      {"compound": "Nc1nc(NCCCN2CCOCC2)nc(Nc2ccccc2)c1[N+](=O)[O-]", "Potency": "active: 23.1 µM"},
      {"compound": "CCc1cccc(C)c1NC(=O)c1cnn(-c2ccc(F)cc2)c1-n1cccc1", "Potency": "inconclusive: 10.3 µM [cytotoxic, partial curve]"},
      {"compound": "CCOc1cccc(C(=O)Nc2cccc(C(=O)NC(C)(C)C)c2)c1", "Potency": "inconclusive: 16.4 µM [cytotoxic, single point]"},
      {"compound": "CCn1cc(C(=O)NCC2CCCO2)c(=O)c2cc(S(=O)(=O)N(C)C3CCCCC3)ccc21", "note": "(configuration not stated)", "activity change, negative = cytotoxicity": "inactive: 0%"},
      {"compound": "CSc1nc2nc3c(cc2c(=O)n1-c1ccccc1)COC(C)(C)C3", "activity change, negative = cytotoxicity": "inactive: 0%"},
      {"compound": "Cc1nnc(SCc2ccccc2CSc2nnc(C)s2)s1", "Potency": "inconclusive: 23.1 µM [cytotoxic, single point]"},
      {"compound": "O=C(C1CCCC1)N1CCN(S(=O)(=O)c2ccc(Cl)cc2)CC1", "Potency": "inconclusive: 25.9 µM [cytotoxic, single point]"},
      {"compound": "CC1(C)C(C=C(Cl)Cl)C1C(=O)N(Cc1ccc(Cl)cc1)C1CCS(=O)(=O)C1", "note": "(configuration not stated)", "Potency": "inconclusive: 29.1 µM [cytotoxic, single point]"},
      {"compound": "COc1ccccc1NC(=O)Cc1csc(NC(=S)Nc2ccc(C)cc2)n1", "Potency": "active: 10.3 µM"},
      {"compound": "CCOC(=O)c1sc(N)c(C(=O)Nc2ccccc2OC)c1C", "Potency": "active: 10.3 µM"},
      {"compound": "CC1=C(C)/C(=N\\OS(=O)(=O)c2ccc(C)cc2)C=CC1=O", "Potency": "inconclusive: 2.91 µM [cytotoxic, full curve]"},
      {"compound": "NC(=O)c1ncn([C@@H]2O[C@H](CN=C3NS(=O)(=O)c4ccccc43)[C@@H](O)[C@H]2O)n1", "Potency": "inconclusive: 11.6 µM [rising, partial curve]"},
      {"compound": "CCN(Cc1ccccc1)S(=O)(=O)c1ccc(C(=O)Nc2nnc(C)o2)cc1", "activity change, negative = cytotoxicity": "inactive: -10.1%"},
      {"compound": "COc1cccc(C2C(=O)N(C3CCCCC3)CC(=O)N2Cc2ccc(F)cc2)c1", "note": "(configuration not stated)", "Potency": "inconclusive: 0.891 µM [cytotoxic, full curve, poor fit]"},
      {"compound": "COCCCNC(=O)CCc1nnc(Cc2ccc(-c3ccccc3)cc2)o1", "Potency": "inconclusive: 29.1 µM [rising, single point]"},
      {"compound": "COc1ccc(NC(=O)CSc2ccc3c(c2)OCCO3)cc1", "activity change, negative = cytotoxicity": "inactive: -11.9%"},
      {"compound": "O=C1Nc2ccccc2Oc2cc(Oc3ccc(Cl)cc3)ccc21", "activity change, negative = cytotoxicity": "inactive: -9.91%"},
      {"compound": "Cc1ccsc1C(=O)NNC(=O)c1ccncc1", "activity change, negative = cytotoxicity": "inactive: 1.2%"},
      {"compound": "COc1ccc2nc(NC(=O)c3cnccn3)sc2c1", "Potency": "inconclusive: 20.6 µM [cytotoxic, single point]"}
    ]}
  ]
}
